Patent US11377501B2, “Peptide having high affinity for PD-L1 protein and use thereof” (priority 2017, dated 2022)
For at least one compound, name, drawing or mass did not settle the structure. Where no end group is shown, it is not given here.

Chains of the proteins cited; added tags and fusions are not shown. Residues count along the entry.
UniProt Q9NZQ7, 19-290: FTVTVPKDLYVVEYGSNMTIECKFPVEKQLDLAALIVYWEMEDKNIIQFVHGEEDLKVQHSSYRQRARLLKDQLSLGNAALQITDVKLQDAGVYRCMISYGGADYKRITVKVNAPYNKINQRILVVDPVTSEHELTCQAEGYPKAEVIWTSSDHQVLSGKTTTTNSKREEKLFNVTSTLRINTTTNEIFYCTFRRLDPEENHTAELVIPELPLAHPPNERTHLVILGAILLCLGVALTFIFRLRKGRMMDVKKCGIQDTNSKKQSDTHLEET

Target: human PD-L1 protein (Homo sapiens, UniProt Q9NZQ7)
Assay: ELISA affinity assay of FITC-labeled PPLC peptide to coated PD-L1 protein
Assay type: binding
Conditions: plate coated with 2 μg/ml PD-L1 protein, OD 410 nm, read-out: dissociation constant Kd

Sequence VSVSHFQKVWVV [PPLC] has a Kd of 750 nM.
